PubChem BioAssay AID1053208, Peter MacCallum Cancer Centre, 2014
Shown is one part, drawn at random, of about 17,000 reagents tested. In the full data, 788 (4.7%) were called active. 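Calls rest on z-score classes alone; an extra cut-off of viability at most 70% of control was not applied to them.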 Unmarked entries are inactive. Reagent sequences are not shown.

Test: 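Find knock-downs that sensitise mouse osteosarcoma cells to doxorubicin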 (primary screen)
System: mouse osteosarcoma cells, early-passage culture from an engineered mouse model of fibroblastic bone tumour
Reagent: siRNA pool against mouse genes, 40 nM
Timing: about 120 h (48 h before drug, then 72 h with drug)
Conditions: doxorubicin 100 nM for 72 h, roughly 30-40% inhibitory dose
Read-out: 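Viability read as ATP luminescence after 72 h of 100 nM doxorubicin or none, duplicate wells averaged, scaled to non-targeting siRNA, then expressed as robust z-scores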
Scale: viability z-score with doxorubicin and doxorubicin viability vs non-targeting: higher = more viable cells under doxorubicin; viability z-score without drug: higher = more viable cells with knock-down alone; z-score of drug to no-drug ratio: higher = less drug sensitisation by knock-down
Rule for the call: 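Called active if knock-down leaves viability unchanged without drug (z within -2 to 2) but lowers it with doxorubicin (z at or under -2)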

| gene | combined z-score class | viability z-score with doxorubicin | viability z-score without drug | z-score of drug to no-drug ratio | doxorubicin viability vs non-targeting |
| --- | --- | --- | --- | --- | --- |
| Thop1 | no change with or without drug | 0.34 | -0.51 | 0.79 | 0.97 |
| Zfp160 | no change with or without drug | -0.22 | -0.17 | 0 | 0.92 |
| Rnf213 | no change with or without drug | 0 | 0.17 | 0 | 0.94 |
| Or51b4 | no change with or without drug | -1.35 | -0.51 | -1.01 | 0.82 |
| Gnb4 | high cell count without drug only | 0.67 | 2.87 | -1.01 | 1 |
| Cyp7a1 | no change with or without drug | 1.24 | 1.35 | 0.45 | 1.05 |
| Chuk | no change with or without drug | 0.67 | -0.84 | 1.46 | 1 |
| Clmp | no change with or without drug | 0.34 | -0.34 | 0.67 | 0.97 |
| Or4z4 | no change with or without drug | -1.35 | -0.17 | -1.24 | 0.82 |
| Aqp9 | no change with or without drug | -0.22 | -1.52 | 1.01 | 0.92 |
| Or7g16 | no change with or without drug | -0.22 | -1.18 | 0.79 | 0.92 |
| Man2c1 | no change with or without drug | 0.45 | -0.17 | 0.67 | 0.98 |
| 4732427B05 | no change with or without drug | 0.22 | 0.51 | 0 | 0.96 |
| Oas1g | no change with or without drug | 0.11 | -0.34 | 0.45 | 0.95 |
| Or52ab4 | no change with or without drug | -0.22 | 0.51 | -0.45 | 0.92 |
| Bcl2 | no change with or without drug | -0.22 | -0.17 | 0 | 0.92 |
| Pde2a | no change with or without drug | 0.22 | -0.17 | 0.45 | 0.96 |
| Plcxd3 | low cell count with doxorubicin only (active) | -2.7 | -0.17 | -2.7 | 0.7 |
| Notch1 | no change with or without drug | 1.57 | -0.17 | 1.91 | 1.08 |
| Hspa12a | no change with or without drug | 0.56 | -0.17 | 0.79 | 0.99 |

Records listed so far with an active call (1):
| gene | combined z-score class | viability z-score with doxorubicin | viability z-score without drug | z-score of drug to no-drug ratio | doxorubicin viability vs non-targeting |
| --- | --- | --- | --- | --- | --- |
| Plcxd3 | low cell count with doxorubicin only (active) | -2.7 | -0.17 | -2.7 | 0.7 |
